These are yes or no findings as the source states them, for the method shown. In cells and extracts the contact can be indirect. Some entries that bind do so weakly or less than the wild type. Tags and fused reporters may be left off the sequences shown.
Tests used:
[1] = target: SMARCA5-FLAG-Myc (UniProt O60264); experiment: co-IP
[2] = target: EGFP-FLAG-Ku80 (UniProt P13010); experiment: co-IP

Protein sequences, listed by entry. Tags and fused reporters are not part of them.
UniProt O60264: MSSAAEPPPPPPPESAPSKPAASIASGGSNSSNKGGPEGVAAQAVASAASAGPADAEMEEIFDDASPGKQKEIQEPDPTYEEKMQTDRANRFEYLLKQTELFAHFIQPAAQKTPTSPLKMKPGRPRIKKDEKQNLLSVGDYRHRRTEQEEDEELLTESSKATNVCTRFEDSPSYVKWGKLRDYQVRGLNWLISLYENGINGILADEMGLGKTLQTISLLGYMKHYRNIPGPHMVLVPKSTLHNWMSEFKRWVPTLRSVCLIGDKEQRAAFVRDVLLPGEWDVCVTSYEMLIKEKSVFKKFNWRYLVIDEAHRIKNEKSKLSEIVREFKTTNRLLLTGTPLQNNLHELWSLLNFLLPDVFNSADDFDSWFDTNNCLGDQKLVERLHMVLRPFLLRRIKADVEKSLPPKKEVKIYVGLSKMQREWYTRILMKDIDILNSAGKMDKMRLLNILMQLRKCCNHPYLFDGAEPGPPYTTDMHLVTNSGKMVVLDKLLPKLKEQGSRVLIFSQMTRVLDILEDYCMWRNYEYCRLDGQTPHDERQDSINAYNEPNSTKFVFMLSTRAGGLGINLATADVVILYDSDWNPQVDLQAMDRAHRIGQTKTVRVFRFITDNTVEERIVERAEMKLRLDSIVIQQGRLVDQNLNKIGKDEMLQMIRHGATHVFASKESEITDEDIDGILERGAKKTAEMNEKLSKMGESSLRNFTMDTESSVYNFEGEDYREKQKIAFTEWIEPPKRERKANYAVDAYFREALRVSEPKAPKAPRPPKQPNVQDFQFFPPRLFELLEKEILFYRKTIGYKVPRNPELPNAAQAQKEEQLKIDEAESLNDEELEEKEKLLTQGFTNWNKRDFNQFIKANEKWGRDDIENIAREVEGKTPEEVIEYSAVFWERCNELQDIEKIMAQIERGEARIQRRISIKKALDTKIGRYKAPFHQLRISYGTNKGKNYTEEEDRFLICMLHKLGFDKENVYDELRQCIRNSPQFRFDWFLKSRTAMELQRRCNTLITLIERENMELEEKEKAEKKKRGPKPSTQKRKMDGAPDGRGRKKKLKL
UniProt P13010: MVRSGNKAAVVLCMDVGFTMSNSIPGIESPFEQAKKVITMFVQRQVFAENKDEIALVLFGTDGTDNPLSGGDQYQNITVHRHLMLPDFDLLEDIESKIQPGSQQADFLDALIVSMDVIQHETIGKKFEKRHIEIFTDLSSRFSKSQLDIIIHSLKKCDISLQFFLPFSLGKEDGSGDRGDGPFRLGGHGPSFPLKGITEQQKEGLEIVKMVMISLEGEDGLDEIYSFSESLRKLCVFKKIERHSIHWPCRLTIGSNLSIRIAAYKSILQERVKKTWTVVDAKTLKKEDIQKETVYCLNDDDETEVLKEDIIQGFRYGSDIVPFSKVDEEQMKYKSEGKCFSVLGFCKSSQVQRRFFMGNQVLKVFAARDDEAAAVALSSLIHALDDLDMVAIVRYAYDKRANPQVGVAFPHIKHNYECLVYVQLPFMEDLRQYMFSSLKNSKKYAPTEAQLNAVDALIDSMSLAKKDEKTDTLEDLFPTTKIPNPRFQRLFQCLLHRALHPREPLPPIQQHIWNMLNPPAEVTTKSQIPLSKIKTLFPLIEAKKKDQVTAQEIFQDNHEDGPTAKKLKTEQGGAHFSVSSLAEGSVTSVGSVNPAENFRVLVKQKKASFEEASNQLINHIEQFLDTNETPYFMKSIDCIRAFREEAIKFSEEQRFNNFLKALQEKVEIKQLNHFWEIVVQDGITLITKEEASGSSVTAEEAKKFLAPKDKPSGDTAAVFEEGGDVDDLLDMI

binding [1]: binds | binding [2]: binds
B1: HA-TRAIP (protein, UniProt Q9BWF2 1-469)
chain: MPIRALCTICSDFFDHSRDVAAIHCGHTFHLQCLIQWFETAPSRTCPQCRIQVGKRTIINKLFFDLAQEEENVLDAEFLKNELDNVRAQLSQKDKEKRDSQVIIDTLRDTLEERNATVVSLQQALGKAEMLCSTLKKQMKYLEQQQDETKQAQEEARRLRSKMKTMEQIELLLQSQRPEVEEMIRDMGVGQSAVEQLAVYCVSLKKEYENLKEARKASGEVADKLRKDLFSSRSKLQTVYSELDQAKLELKSAQKDLQSADKEIMSLKKKLTMLQETLNLPPVASETVDRLVLESPAPVEVNLKLRRPSFRDDIDLNATFDVDTPPARPSSSQHGYYEKLCLEKSHSPIQDVPKKICKGPRKESQLSLGGQSCAGEPDEELVGAFPIFVRNAILGQKQPKRPRSESSCSKDVVRTGFDGLGGRTKFIQPTDTVMIRPLPVKPKTKVKQRVRVKTVPSLFQAKLDTFLWS
